At least one compound was matched to its structure with a doubt left.
Columns and labels:
EGFR [1] = assay: EGFR tyrosine phosphorylation (IP/immunoblot) in Cos-7 cells; assay type: cell-based
EGFR [2] = assay: EGFR tyrosine phosphorylation (IP/immunoblot) in TCC-Sup bladder carcinoma cells; assay type: cell-based, human; conditions: pre-treated 20 min with BB94 10 μM or Crm197 10 μg/mL, stimulated 10 min, FIG. 3A
proHB-EGF = assay: Flow cytometric analysis of proHB-EGF processing in Cos-7 cells; assay type: cell-based; conditions: BB94 10 μM 20 min, 0.3 M sorbitol or 200 μM hydrogen peroxide 30 min, FIG. 4A
HB-EGF = assay: Immunoblot of conditioned media (TCA precipitation of HB-EGF), Cos-7 cells transfected with proHB-EGF; assay type: cell-based; conditions: Cos-7 expressing proHB-EGF; BB94 10 μM; sorbitol 0.3 M or hydrogen peroxide 200 μM 20 min; FIG. 4B
ERK1/2 [3] = assay: ERK1/2 phosphorylation immunoblot in Cos-7 cells (pcDNA3-HA-ERK2); assay type: cell-based; conditions: AG1478 250 nM, BB94 10 μM, Crm197 10 μg/mL 20 min, stimulated 30 min, FIG. 6A
Method: (§1) FIG. 6. MAPK activation in response to stress agents and blockade of EGFR, metalloprotease and HB-EGF function. (A) Cos-7 cells transiently transfected with pcDNA3-HA-ERK2, TCC-Sup and NCI-H292 cells were pre-treated with AG1478 (250 nM), BB94 (10 μM), Crm197 (10 μg/mL) or an equal volume of empty vehicle (DMSO) for 20 min and stimulated with 0.3 M sorbitol or 200 μM hydrogen peroxide for 30 min. After cell lysis total lysates were immunoblotted with anti-phospho-ERK antibody, followed by reprobing of the same membranes with polyclonal anti-ERK antibody. Quantitative analysis of ERK phosphorylation from three independent experiments (mean[…]s.d.) using the FUJI LAS1000 imaging system. (B) Cos-7 and NCI-H292 cell were treated as described under (A). After lysis, JNK was immunoprecipitated using an anti-JNK antibody, and JNK activity was assayed using GST-c-JUN fusion protein as a substrate. Phosphorylated GST-c-JUN was visualized by autoradiography and JNK was immunoblotted in parallel using polyclonal JNK antibody. Quantitative analysis of GST-c-JUN phosphorylation from three independent experiments (mean[…]s.d.) using the FUJI LAS1000 imaging system. TCC-Sup cells were treated as described under (A). […]
(§2) Cells were lysed and proteins immunoprecipitated as described before (Daub et al., 1997). […] Phosphotyrosine was detected with the 4G10 monoclonal antibody (UBI, Lake Placid, N.Y.). […]

ERK1/2 [4] = assay: ERK1/2 phosphorylation immunoblot in TCC-Sup cells; assay type: cell-based, human; conditions: AG1478 250 nM, BB94 10 μM, Crm197 10 μg/mL, FIG. 6A
Method: as §1, §2

ERK1/2 [5] = assay: ERK1/2 phosphorylation immunoblot in NCI-H292 cells; assay type: cell-based, human; conditions: AG1478 250 nM, BB94 10 μM, Crm197 10 μg/mL, FIG. 6A
Method: as §1, §2

CNC(=O)[C@H](Cc1ccccc1)NC(=O)[C@H](CC(C)C)[C@H](CSc1cccs1)C(=O)NO [BB94, Batimastat]
direct stimulation of EGFR with EGF (EGFR [1]; BB94 10 μM or Crm197 10 μg/mL, EGF 2 ng/mL, FIG. 3A (cell line not given)): unaffected | receptor activation by LPA (positive control) (EGFR [1]; BB94 10 μM or Crm197 10 μg/mL, LPA 10 μM, FIG. 3A (Cos-7, NCI-H292, TCC-Sup; cell line not given)): completely prevented | sorbitol or hydrogen peroxide-induced EGFR phosphorylation (EGFR [1]; Cos-7, pre-treated 20 min with BB94 10 μM or Crm197 10 μg/mL, stimulated 10 min, FIG. 3A): almost completely blocked | sorbitol or hydrogen peroxide-induced EGFR phosphorylation (EGFR [2]): almost completely blocked | proHB-EGF processing (surface proHB-EGF) (proHB-EGF): abolished | HB-EGF release into conditioned medium (HB-EGF): blocked | sorbitol and hydrogen peroxide-induced activation of ERK1/2 (ERK1/2 [3]): almost as effective in blocking | hyperosmolarity and oxidative stress-induced ERK1/2 activation (ERK1/2 [4]): substantially blocked | hyperosmolarity and oxidative stress-induced ERK1/2 activation (ERK1/2 [5]): substantially blocked
